Laboratory results from paper PMC7819943, “Rice protein-binding microarrays: a tool to detect cis-acting elements near promoter regions in rice”.
Some of the results follow.

target: T1, OsSMF1 (Oryza sativa, UniProt Q6ZLB0 1-436); assay: protein-binding microarray (RPBM); PBS, 2% BSA, 51.3 ng/ul salmon testes DNA, 50 uM zinc acetate, 200 nM TF, 25 C, 1 h; high values mean tight binding; conditions: protein: recombinant; tags: N-terminal polyhistidine and DsRed monomer fusion (pET32a); chain copies: 2; label: CyDye5-dUTP incorporated in the synthesized complementary strand; 3' TTTTT single-stranded linker to array surface; dsDNA, one strand shown
T1 sequence: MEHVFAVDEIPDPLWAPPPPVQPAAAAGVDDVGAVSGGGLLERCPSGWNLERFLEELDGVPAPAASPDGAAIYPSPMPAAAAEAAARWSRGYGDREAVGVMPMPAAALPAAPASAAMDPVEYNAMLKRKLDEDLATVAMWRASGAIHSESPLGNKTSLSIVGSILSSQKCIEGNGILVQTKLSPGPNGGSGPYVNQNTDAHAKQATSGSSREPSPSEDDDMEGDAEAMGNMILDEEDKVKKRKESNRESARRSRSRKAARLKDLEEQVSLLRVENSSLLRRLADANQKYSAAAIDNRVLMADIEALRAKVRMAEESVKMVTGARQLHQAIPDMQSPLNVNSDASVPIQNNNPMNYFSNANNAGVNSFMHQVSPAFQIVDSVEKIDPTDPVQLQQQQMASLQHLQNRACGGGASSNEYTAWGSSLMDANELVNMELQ
Summary of the method: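 Transcription factors, each fused N-terminally to a polyhistidine tag and DsRed, were expressed in E. coli BL21-CodonPlus and purified on Ni–NTA. A custom Agilent array was made double-stranded by primer extension with Cy5-dUTP and blocked with 2% BSA. It was incubated with 200 nM protein in PBS, 2% BSA, salmon testes DNA and 50 µM zinc acetate at 25 °C for 1 h, then washed. The binding signal is per-feature fluorescence intensity (arbitrary units) read on an Axon 4000B scanner.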

| Sequence | binding signal |
| --- | --- |
| TCGTGCACAGGTACACTGACCCAAGACCATTGCAACGTGCCGGAGTCACCTAGTGCAG | 3330 fluorescence intensity (a.u.) |
| TACTTCAAACGTGTCTCCGTATATCCGATGTGACACGTCACGGAGTCACCTAGTGCAG | 20400 fluorescence intensity (a.u.) |
| AATGCCTCTCCTCTCGCCTCGTCACTTTGAGCTCAGTAGACGGAGTCACCTAGTGCAG | 3220 fluorescence intensity (a.u.) |
| GCTCGATTTCGTCGTGTGTTCTTCTCCGTCTCCGATGACTCGGAGTCACCTAGTGCAG | 3240 fluorescence intensity (a.u.) |
| GATAGTGTGCAAACCACGGCGCACACTCTGGCCGGTCGTCCGGAGTCACCTAGTGCAG | 3340 fluorescence intensity (a.u.) |
| AGGCAGACGTTCAGCAGCCGCGTCGGCAGCAGCCACCGCCCGGAGTCACCTAGTGCAG | 3360 fluorescence intensity (a.u.) |
| CTCATCATCTCTCTCACAATTGCCAACGCCACTGCATGCCCGGAGTCACCTAGTGCAG | 4400 fluorescence intensity (a.u.) |
| TAAAACATCAAATATGTGTCACCACTATAGGCCTTTTCCCCGGAGTCACCTAGTGCAG | 4670 fluorescence intensity (a.u.) |
| AAAGGATTCATGTCATGCACACGTAGTAATCATAATTCAGCGGAGTCACCTAGTGCAG | 3440 fluorescence intensity (a.u.) |
| ATCCATCCAAATTAATCATTAATCAACAAGAGATGAGGAACGGAGTCACCTAGTGCAG | 23900 fluorescence intensity (a.u.) |
| ACAACTCGCTATGACTCACTCACCAATTACCATTCTTAACCGGAGTCACCTAGTGCAG | 9980 fluorescence intensity (a.u.) |
| ACACAACACCACGCACGCCCACCACCGCTAAACAGACAGTCGGAGTCACCTAGTGCAG | 4550 fluorescence intensity (a.u.) |
| CGTCACCCGCGTGGCCACGTCGATGGCACCGACGTCGTCGCGGAGTCACCTAGTGCAG | 6860 fluorescence intensity (a.u.) |
| CTCGATGCTGGATGACAGGATCAAGCCGGACGAGTTCACCCGGAGTCACCTAGTGCAG | 5360 fluorescence intensity (a.u.) |
| ACCATCCATCCAGCCAGCCAGCCAGCCACATCATATGTCCCGGAGTCACCTAGTGCAG | 7730 fluorescence intensity (a.u.) |
| TCCCGCGACGTCGTCGTCATCGACTACTCCATCGCGGCCGCGGAGTCACCTAGTGCAG | 5000 fluorescence intensity (a.u.) |
| CATTTGCTTAATTTCCACATGAGATGCTAAAGAAGTTTTACGGAGTCACCTAGTGCAG | 3500 fluorescence intensity (a.u.) |
| CTGACTATAATGCCACGTCAGCCAACACAACTATTCCTATCGGAGTCACCTAGTGCAG | 22600 fluorescence intensity (a.u.) |
| GCAAAATGTCAGGCCGACACAACCCGTCATACTCTTCATGCGGAGTCACCTAGTGCAG | 3480 fluorescence intensity (a.u.) |
| AGTAGGCTGCCATGTAGATGTCACGTCAACGAAATCCGCTCGGAGTCACCTAGTGCAG | 5220 fluorescence intensity (a.u.) |
| TCAATGCTATGTTCTGTAGTGAGTCATGGTCAGTGATAGACGGAGTCACCTAGTGCAG | 8320 fluorescence intensity (a.u.) |

Another view of part of the listing above:
Sequence,binding signal
CTCGATGCTGGATGACAGGATCAAGCCGGACGAGTTCACCCGGAGTCACCTAGTGCAG,5360 fluorescence intensity (a.u.)
CATTTGCTTAATTTCCACATGAGATGCTAAAGAAGTTTTACGGAGTCACCTAGTGCAG,3500 fluorescence intensity (a.u.)

Another view of part of the listing above:
Sequence	binding signal
TCGTGCACAGGTACACTGACCCAAGACCATTGCAACGTGCCGGAGTCACCTAGTGCAG	3330 fluorescence intensity (a.u.)
AAAGGATTCATGTCATGCACACGTAGTAATCATAATTCAGCGGAGTCACCTAGTGCAG	3440 fluorescence intensity (a.u.)

Later entries:

| Sequence | binding signal |
| --- | --- |
| ACCAAACAAGCTGTTAATTAGTGACGCAAACCATCAACCACGGAGTCACCTAGTGCAG | 4470 fluorescence intensity (a.u.) |
| GGGCCTCCAGCGCTCCCCGCCGCCGGCGCTCCAGCTCCCGCGGAGTCACCTAGTGCAG | 3670 fluorescence intensity (a.u.) |
| CGCATCCCGACCAAACTACCCCACTACAAGACAAACCAGCCGGAGTCACCTAGTGCAG | 3780 fluorescence intensity (a.u.) |
| CACTTGATCCGATGGTTGCAAGATGTTGATGACGTGGCTTCGGAGTCACCTAGTGCAG | 14900 fluorescence intensity (a.u.) |
| CCCAAGTCACCACCTCACCTCACCACCACCCACCTCGTCTCGGAGTCACCTAGTGCAG | 5600 fluorescence intensity (a.u.) |
| CTCTTTATAACTTGGTTACTTCCAGACTGATGTCATTTTCCGGAGTCACCTAGTGCAG | 36600 fluorescence intensity (a.u.) |
| CCCAACCTCCCTCCCTCGCGTGCGCAATGACCTACACAACCGGAGTCACCTAGTGCAG | 4180 fluorescence intensity (a.u.) |
| CTAGCCCTTGCTTCATTTTACGTGTTGGGAGGGAAGGGGTCGGAGTCACCTAGTGCAG | 4200 fluorescence intensity (a.u.) |
| GTAATAATCTCTGACCAAATCGCCAAATCATCCGCCCAGACGGAGTCACCTAGTGCAG | 3220 fluorescence intensity (a.u.) |
| CTGAATCCATAATCCTAATCGATCATCATCACTTTTGCTGCGGAGTCACCTAGTGCAG | 4050 fluorescence intensity (a.u.) |
| CCCGATGTACGAGGCGCAGGCTGCATTGACCACACGTCATCGGAGTCACCTAGTGCAG | 10700 fluorescence intensity (a.u.) |
| ATTGCGGGGCCCAGGTGCGTCCTCCCGAATCCTGATCCAACGGAGTCACCTAGTGCAG | 17300 fluorescence intensity (a.u.) |
| CGCTCATTTCCTAGGTGCGGGCAGCAGAGTCAGCTGGTGGCGGAGTCACCTAGTGCAG | 3530 fluorescence intensity (a.u.) |
| CCAGCAAGAGATCCATCAAGCCGTCGCGATGACGACGAGGCGGAGTCACCTAGTGCAG | 3850 fluorescence intensity (a.u.) |
| GTGACATCTAAGTGCCGCGTGTTCTCCTCTTCCTCTTCCCCGGAGTCACCTAGTGCAG | 4550 fluorescence intensity (a.u.) |
| ACAAGTAATTACTCAGCTGCCCCTATTAAACCCCATCTTACGGAGTCACCTAGTGCAG | 3190 fluorescence intensity (a.u.) |
| ACCTCCTGTTTGTTTATGGTTTCCCTAAATTTGCAAACGCCGGAGTCACCTAGTGCAG | 3170 fluorescence intensity (a.u.) |
| TCCTTGTGTTTTGATGGAATGGCCTCATCTACTTGTTTGGCGGAGTCACCTAGTGCAG | 3380 fluorescence intensity (a.u.) |
| ATCCCCTGGCACGACGCTGACAGGTGGGCCCCAGTTGCGGCGGAGTCACCTAGTGCAG | 5010 fluorescence intensity (a.u.) |
| GGGAGACAGTCCAGTAGGGAAGGCAACGGTTGCAGCAAAGCGGAGTCACCTAGTGCAG | 28600 fluorescence intensity (a.u.) |
| AACGATGCTGAAAATCTGATGCGGTAGACTGCTGCTGTAGCGGAGTCACCTAGTGCAG | 24800 fluorescence intensity (a.u.) |
